In assay [1] the target is cynomolgus B7H3 (cynomolgus). Put plainly: ELISA, VHH on cynomolgus B7H3 (FIG. 1B). In general terms: In an ELISA, binding on a coated surface is turned into a signal by an enzyme label.
The target of assay [2] is cynomolgus B7H3 (cynomolgus). Put plainly: ELISA on cynomolgus B7H3, OD450.

Among the data in patent US20250243278A1 are binding values, retold here.

Substitutions are numbered along the chain they refer to. Results are given in words; binding and its absence hold for the method and conditions named. A result given as binding can be weak or reduced; the word gives no strength.

B1: 5E8 VHH (VHH)
VHH: QVKLEESGGGLVQAGGSLKLSCAASGRTFSSDSMAWFREAPGKARGFVAVVSRSAGSTWYEDSVKGRFTISRDNAKNTVYLQMNSLKPEDTAVYYCAATDIATMPWLMVSSRYDYWGQGTQVTVSS
As for B1, the binding result in assay [1] and in assay [2] was “binds” throughout.

B2: 5H8 VHH (VHH)
VHH: B1 VHH with L11Q, G16D, L18R, K19T, A23V
Regarding B2, the binding result in assay [1] and in assay [2] was “binds” each time.

B3: 18B5 VHH (VHH)
VHH: B1 VHH with K3Q, E5Q, K19T, A23T, R27I
As for B3, the binding entry in assay [1] and in assay [2] was “binds” in each case.

B4: 14B12 VHH (VHH)
VHH: QVQLVESGGGVVQAGGSLRLSCAASGRTFRNFGMGWFRQAPRKARGFVGAVTSAGSTWYEDSVKGRFTISRDNAKNTVYLQMNSLKPEDTAVYYCAATTIATMPWLMVSSRYAYWGQGTQVTVSS
For the molecule B4, the binding entry in assay [1] and in assay [2] was “binds” each time.

B5: 20C11 VHH (VHH)
VHH: QVQLVESGGGLVQPGGSLRLSCAASELTLDYNIGWFRQAPRKARGFVGAVTSAGSTWYEDSVKGRFTISRDNAKNTVYLQMNSLKPEDTAVYYCAATTIATMPWLMVSSRYAYWGQGTQVTVSS
Turning to B5, the binding entry in assay [1] and in assay [2] was “binds” each time.

B6: 21F11 VHH (VHH)
VHH: QVQLVESGGGLVQPGGSLRLSCAASGDDFFTINAIDAIGWFRQAPRKARGFVGAVTSAGSTWYEDSVKGRFTISRDNAKNTVYLQMNSLKPEDTAVYYCAATTIATMPWLMVSSRYAYWGQGTQVTVSS
Turning to B6, the binding entry in assay [1] and in assay [2] was “binds” in each case.

B7: 6H4 VHH (VHH)
VHH: QVQLQESGGDLVQPGGSLTLSCAASGGSFSSDSMGWFRQAPRKARGFVGAVTSAGSTWYEDSVKGRFTISRDNAKNTVYLQMNSLKPEDTAVYYCAATTIATMPWLMVSSRYAYWGQGTQVTVSS
For the molecule B7, the binding result in assay [1] and in assay [2] was “binds” in each case.

B8: 7F3 VHH (VHH)
VHH: B4 VHH with E6D, V11L, G16D, T28P, R30N, N31S, F32W, G33S
As for B8, the binding entry in assay [1] and in assay [2] was “binds” each time.

B9: 7H7 VHH (VHH)
VHH: B4 VHH with Q3K, V5E, V11L, R27S, R30S, N31K, F32Y, G33A
As to B9, the binding entry in assay [1] and in assay [2] was “binds” each time.

B10: 14C4 VHH (VHH)
VHH: B4 VHH with R30S, N31S, F32Y
Take B10: the binding entry in assay [1] and in assay [2] was “binds” in each case.

B11: 19C10 VHH (VHH)
VHH: B4 VHH with V11L, R27S, R30S, N31K, F32Y, G33A
For B11, the binding result in assay [1] and in assay [2] was “binds” in each case.
